Article PMC12077264
Results are given in words; binding and its absence hold for the method and conditions named. Binding seen in cells or lysates may run through a third protein. Some entries that bind do so weakly or less than the wild type. Tags and fused reporters may be left off the sequences shown.

T1: GST:CcmC (wild type), in GST:CcmCDE(H130A) or GST:CcmC(D:flag)E(H130A) (E. coli) (UniProt P0ABM1)
T1 sequence: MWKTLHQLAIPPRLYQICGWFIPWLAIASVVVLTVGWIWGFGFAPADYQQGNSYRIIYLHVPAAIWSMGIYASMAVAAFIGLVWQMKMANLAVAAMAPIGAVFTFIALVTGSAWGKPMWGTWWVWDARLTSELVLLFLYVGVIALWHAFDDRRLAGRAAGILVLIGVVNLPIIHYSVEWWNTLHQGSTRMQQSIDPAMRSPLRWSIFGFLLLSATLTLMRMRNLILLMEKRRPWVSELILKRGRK

B1: CcmD(G15C), in GST:CcmCDE(H130A) (protein, UniProt P0ABM5 1-69)
chain: MTPAFASWNEFFAMCGYAFFVWLAVVMTVIPLVVLVVHSVMQHRAILRGVAQQRAREARLRAAQQQEAA
B2: CcmD:flag (wild type), in GST:CcmC(D:flag)E(H130A) (protein, UniProt P0ABM5 1-69)
chain: MTPAFASWNEFFAMGGYAFFVWLAVVMTVIPLVVLVVHSVMQHRAILRGVAQQRAREARLRAAQQQEAA
B3: CcmD(F19C), in GST:CcmCDE(H130A) (protein, UniProt P0ABM5 1-69)
chain: MTPAFASWNEFFAMGGYACFVWLAVVMTVIPLVVLVVHSVMQHRAILRGVAQQRAREARLRAAQQQEAA
B4: CcmD(Y17C):flag, in GST:CcmC(D:flag)E(H130A) (protein, UniProt P0ABM5 1-69)
chain: MTPAFASWNEFFAMGGCAFFVWLAVVMTVIPLVVLVVHSVMQHRAILRGVAQQRAREARLRAAQQQEAA
B5: CcmD(Q42C), in GST:CcmCDE(H130A) (protein, UniProt P0ABM5 1-69)
chain: MTPAFASWNEFFAMGGYAFFVWLAVVMTVIPLVVLVVHSVMCHRAILRGVAQQRAREARLRAAQQQEAA
B6: CcmD(Y17C), in GST:CcmCDE(H130A) (protein, UniProt P0ABM5 1-69)
chain: MTPAFASWNEFFAMGGCAFFVWLAVVMTVIPLVVLVVHSVMQHRAILRGVAQQRAREARLRAAQQQEAA
B7: CcmD(A18C), in GST:CcmCDE(H130A) (protein, UniProt P0ABM5 1-69)
chain: MTPAFASWNEFFAMGGYCFFVWLAVVMTVIPLVVLVVHSVMQHRAILRGVAQQRAREARLRAAQQQEAA
B8: CcmD(A45C), in GST:CcmCDE(H130A) (protein, UniProt P0ABM5 1-69)
chain: MTPAFASWNEFFAMGGYAFFVWLAVVMTVIPLVVLVVHSVMQHRCILRGVAQQRAREARLRAAQQQEAA
B9: CcmD(I46C):flag, in GST:CcmC(D:flag)E(H130A) (protein, UniProt P0ABM5 1-69)
chain: MTPAFASWNEFFAMGGYAFFVWLAVVMTVIPLVVLVVHSVMQHRACLRGVAQQRAREARLRAAQQQEAA
B10: CcmD(I46C), in GST:CcmCDE(H130A) (protein, UniProt P0ABM5 1-69)
chain: MTPAFASWNEFFAMGGYAFFVWLAVVMTVIPLVVLVVHSVMQHRACLRGVAQQRAREARLRAAQQQEAA

Biological target: T1, GST:CcmC (wild type), in GST:CcmCDE(H130A) or GST:CcmC(D:flag)E(H130A) (E. coli)
Assay: pull-down; GST affinity purification via the N-terminal GST tag on CcmC of co-expressed GST:CcmCDE(H130A) or GST:CcmC(D:flag)E(H130A) from E. coli; 5 ug affinity purified protein on SDS-PAGE, Coomassie stain and α-GST, α-CcmE, α-FLAG immunoblots

binding, binds:
B1
B2
B3
B4
B5
B6
B7
B8
B9
B10
